Here are results for 35 targets from the supplement of paper PMC12067093, “Discovery and optimisation of a covalent ligand for TRIM25 and its application to targeted protein ubiquitination” (Chemical Science, 2025).

The chains behind the UniProt entries cited, without tags or fusion partners. Where a name states a change or a piece, a line headed by the entry shows the natural chain unless it says otherwise.
UniProt P05198, whole entry, looked up: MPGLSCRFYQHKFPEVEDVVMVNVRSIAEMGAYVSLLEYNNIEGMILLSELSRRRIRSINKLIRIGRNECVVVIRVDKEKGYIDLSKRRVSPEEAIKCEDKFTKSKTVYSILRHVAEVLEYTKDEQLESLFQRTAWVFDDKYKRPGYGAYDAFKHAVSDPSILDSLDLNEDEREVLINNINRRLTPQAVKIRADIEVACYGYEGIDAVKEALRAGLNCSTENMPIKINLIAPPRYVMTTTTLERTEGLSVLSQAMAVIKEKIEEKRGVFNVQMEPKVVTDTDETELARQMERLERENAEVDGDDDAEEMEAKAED
UniProt Q8N3D4: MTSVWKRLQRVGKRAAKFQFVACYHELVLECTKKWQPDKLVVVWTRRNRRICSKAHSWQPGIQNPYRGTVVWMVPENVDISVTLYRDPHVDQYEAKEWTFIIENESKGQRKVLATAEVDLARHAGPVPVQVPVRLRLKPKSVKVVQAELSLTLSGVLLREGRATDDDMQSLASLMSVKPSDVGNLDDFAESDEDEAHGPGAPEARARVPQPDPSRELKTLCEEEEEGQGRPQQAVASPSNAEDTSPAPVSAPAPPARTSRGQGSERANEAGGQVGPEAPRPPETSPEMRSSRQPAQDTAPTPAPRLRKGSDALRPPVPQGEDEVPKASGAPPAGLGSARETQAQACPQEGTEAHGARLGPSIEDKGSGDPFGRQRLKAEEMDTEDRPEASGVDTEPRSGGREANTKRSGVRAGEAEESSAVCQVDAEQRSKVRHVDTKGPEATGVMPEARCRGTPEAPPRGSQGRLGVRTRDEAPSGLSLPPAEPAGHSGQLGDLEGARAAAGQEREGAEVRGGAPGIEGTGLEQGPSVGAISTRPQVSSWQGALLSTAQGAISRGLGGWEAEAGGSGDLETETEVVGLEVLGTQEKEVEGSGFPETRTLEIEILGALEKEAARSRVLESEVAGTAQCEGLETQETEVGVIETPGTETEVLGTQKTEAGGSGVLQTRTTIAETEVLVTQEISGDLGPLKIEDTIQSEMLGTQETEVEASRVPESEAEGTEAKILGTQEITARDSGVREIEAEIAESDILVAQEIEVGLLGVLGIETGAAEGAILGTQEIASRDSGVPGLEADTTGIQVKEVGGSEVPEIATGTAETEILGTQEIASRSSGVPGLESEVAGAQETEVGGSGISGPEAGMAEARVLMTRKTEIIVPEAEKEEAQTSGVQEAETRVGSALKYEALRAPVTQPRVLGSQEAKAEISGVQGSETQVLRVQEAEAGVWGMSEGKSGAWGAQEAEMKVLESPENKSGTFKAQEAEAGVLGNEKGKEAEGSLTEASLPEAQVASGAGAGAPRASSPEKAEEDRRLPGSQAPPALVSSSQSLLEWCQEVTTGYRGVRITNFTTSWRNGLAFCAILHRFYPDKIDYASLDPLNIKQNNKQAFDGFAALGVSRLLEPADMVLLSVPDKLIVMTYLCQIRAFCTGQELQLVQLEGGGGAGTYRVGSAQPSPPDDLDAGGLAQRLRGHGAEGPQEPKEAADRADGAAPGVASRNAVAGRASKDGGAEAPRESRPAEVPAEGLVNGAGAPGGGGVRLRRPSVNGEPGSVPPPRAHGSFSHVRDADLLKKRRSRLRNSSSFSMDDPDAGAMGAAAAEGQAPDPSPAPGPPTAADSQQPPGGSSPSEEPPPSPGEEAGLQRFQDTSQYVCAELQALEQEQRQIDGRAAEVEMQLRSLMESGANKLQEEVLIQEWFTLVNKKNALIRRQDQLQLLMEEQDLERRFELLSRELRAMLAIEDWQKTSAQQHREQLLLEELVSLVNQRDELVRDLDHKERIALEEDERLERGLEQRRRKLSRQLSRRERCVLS
UniProt P26641, whole entry, looked up: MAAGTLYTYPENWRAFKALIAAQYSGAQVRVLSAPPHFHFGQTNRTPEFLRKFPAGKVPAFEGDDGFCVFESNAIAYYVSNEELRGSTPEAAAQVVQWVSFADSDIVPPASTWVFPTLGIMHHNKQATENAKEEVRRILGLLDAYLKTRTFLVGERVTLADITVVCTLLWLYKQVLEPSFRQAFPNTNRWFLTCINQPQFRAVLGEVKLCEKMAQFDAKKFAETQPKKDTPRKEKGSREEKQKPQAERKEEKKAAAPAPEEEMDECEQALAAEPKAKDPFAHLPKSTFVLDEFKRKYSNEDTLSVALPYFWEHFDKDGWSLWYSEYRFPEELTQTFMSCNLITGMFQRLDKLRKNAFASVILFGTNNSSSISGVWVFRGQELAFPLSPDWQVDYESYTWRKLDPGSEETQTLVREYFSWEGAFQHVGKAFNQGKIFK
UniProt Q8N9N8: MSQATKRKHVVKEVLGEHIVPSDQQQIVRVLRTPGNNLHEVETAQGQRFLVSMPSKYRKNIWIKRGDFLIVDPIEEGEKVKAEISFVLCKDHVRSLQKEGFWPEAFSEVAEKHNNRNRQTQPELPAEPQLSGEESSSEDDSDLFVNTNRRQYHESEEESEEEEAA
UniProt Q9H9B1: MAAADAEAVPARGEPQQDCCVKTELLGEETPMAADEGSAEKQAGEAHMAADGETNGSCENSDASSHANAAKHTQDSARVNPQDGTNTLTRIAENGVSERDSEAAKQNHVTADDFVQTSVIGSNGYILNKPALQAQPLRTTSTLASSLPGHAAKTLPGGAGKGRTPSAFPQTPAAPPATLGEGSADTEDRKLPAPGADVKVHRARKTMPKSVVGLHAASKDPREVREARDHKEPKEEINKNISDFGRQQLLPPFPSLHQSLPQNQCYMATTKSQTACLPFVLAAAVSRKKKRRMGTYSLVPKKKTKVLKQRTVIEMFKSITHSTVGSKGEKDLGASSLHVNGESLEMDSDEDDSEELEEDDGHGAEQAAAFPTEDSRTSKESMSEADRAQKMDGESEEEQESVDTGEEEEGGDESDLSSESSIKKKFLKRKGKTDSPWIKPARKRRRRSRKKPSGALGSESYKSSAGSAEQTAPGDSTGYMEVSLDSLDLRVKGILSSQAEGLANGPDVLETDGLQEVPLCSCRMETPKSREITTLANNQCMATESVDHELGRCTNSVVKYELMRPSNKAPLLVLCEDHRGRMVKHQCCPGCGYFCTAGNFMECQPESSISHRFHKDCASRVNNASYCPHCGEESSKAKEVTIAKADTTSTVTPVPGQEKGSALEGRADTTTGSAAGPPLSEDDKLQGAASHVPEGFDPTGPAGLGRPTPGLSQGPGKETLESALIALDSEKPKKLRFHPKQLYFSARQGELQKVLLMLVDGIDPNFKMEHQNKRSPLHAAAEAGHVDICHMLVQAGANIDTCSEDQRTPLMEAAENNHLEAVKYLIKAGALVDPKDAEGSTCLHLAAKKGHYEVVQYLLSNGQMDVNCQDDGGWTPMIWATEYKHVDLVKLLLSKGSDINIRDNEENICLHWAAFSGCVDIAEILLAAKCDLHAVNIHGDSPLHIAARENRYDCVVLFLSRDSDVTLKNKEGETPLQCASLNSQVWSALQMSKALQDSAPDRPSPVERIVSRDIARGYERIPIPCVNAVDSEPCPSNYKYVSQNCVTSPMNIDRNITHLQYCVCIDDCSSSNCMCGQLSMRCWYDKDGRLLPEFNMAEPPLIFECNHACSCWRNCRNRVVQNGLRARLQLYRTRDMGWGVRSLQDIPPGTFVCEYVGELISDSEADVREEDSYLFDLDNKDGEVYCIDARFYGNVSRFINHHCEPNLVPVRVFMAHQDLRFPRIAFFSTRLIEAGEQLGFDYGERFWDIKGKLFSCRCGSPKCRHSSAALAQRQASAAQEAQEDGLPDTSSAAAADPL
UniProt P41091, whole entry, looked up: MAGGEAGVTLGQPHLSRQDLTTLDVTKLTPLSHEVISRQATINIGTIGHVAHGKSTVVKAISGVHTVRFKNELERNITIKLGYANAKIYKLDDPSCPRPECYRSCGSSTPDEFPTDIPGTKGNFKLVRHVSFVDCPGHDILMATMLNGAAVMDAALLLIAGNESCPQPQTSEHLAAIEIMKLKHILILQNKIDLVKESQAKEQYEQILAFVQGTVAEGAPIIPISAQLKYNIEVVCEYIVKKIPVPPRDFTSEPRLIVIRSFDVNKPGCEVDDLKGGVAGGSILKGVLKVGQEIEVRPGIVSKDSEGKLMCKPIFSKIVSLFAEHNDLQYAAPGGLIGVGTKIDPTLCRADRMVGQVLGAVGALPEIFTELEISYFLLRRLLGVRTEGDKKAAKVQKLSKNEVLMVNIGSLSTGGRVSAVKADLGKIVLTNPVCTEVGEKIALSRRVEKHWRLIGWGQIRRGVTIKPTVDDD
UniProt Q96KQ7: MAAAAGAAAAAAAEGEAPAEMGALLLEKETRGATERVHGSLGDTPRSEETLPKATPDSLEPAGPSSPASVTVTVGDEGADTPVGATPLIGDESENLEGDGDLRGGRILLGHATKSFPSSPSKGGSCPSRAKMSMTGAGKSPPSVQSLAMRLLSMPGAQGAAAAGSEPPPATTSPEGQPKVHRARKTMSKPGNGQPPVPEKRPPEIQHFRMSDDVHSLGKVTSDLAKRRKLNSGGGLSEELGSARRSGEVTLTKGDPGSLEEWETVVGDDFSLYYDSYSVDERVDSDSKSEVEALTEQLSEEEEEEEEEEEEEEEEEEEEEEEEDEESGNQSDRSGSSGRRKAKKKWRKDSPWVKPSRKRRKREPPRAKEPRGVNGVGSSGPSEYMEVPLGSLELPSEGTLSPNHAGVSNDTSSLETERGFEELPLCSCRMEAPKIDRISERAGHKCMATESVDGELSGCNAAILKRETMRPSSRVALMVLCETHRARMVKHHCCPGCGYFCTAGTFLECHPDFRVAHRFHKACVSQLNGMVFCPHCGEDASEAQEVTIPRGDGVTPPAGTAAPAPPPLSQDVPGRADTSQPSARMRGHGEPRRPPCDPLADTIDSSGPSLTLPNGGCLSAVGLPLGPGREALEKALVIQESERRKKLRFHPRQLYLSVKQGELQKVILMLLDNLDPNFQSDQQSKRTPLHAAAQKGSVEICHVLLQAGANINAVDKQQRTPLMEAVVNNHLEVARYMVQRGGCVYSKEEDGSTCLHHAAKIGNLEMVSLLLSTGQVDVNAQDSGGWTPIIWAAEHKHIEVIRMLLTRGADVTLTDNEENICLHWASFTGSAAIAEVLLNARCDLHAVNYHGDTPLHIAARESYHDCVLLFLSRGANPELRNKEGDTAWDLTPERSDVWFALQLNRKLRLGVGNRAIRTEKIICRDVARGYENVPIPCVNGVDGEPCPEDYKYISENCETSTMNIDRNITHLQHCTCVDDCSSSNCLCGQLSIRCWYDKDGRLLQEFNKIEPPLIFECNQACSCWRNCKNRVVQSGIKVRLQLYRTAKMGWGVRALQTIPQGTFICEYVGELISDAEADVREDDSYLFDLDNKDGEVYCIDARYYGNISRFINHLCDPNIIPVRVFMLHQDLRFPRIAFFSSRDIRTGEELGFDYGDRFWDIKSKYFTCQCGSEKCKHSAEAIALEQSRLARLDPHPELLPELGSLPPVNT
UniProt P68104, whole entry, looked up: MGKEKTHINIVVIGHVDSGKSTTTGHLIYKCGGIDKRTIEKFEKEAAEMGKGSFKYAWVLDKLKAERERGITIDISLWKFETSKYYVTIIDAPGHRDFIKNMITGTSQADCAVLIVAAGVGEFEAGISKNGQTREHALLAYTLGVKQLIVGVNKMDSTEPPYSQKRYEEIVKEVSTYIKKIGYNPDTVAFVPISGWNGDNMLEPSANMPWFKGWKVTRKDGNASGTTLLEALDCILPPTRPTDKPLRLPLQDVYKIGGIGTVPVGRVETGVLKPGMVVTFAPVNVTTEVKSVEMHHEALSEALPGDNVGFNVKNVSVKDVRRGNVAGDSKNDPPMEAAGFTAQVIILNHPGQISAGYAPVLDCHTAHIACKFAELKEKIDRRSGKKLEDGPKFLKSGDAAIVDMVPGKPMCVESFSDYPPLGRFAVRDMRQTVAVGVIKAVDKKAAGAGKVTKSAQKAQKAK
UniProt Q9UHF1: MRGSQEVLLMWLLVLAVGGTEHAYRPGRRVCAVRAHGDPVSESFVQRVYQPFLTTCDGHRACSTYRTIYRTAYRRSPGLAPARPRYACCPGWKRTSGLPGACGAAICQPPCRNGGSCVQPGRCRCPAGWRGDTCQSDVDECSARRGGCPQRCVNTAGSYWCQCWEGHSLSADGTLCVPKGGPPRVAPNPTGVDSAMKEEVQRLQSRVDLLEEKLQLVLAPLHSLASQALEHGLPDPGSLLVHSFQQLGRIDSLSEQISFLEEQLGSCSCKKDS
UniProt P41567, whole entry, looked up: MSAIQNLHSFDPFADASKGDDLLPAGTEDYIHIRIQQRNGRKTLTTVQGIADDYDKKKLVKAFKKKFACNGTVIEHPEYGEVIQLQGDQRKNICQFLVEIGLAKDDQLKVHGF

Some of the results follow.
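Further: competitive profiling in live THP-1 cells: cysteine peptides tagged with an iodoacetamide desthiobiotin (IA-DTB) probe, intensity after compound treatment relative to DMSO-treated cells.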

Compound in the first experiment: Cc1cc(ccc1-c1ccccc1)C(=O)N1CCCN(CC1)C(=O)CCl [compound 10]
Put plainly: probe-labelled cysteine peptide fold change vs DMSO (competition) (log2 fold change); higher = less target engagement (more negative = stronger competition). Particulars: 10 µM; THP-1; incubation time: 4 h.
For “EIF2S1_P05198_70_IGRNECVVVIRVDK (UniProt P05198)”, the “probe-labelled cysteine peptide fold change” value is -0.134.

For “EIF2A_Q9BY44_306_CDPVFDFGTGPR (UniProt Q9BY44)”, the “probe-labelled cysteine peptide fold change” value worked out at 0.127.

On to “ECPAS_Q5VYK3_602_MCLAHSAGVVPTSQSLADMQDHAPAIGR (UniProt Q5VYK3)”, for which the “probe-labelled cysteine peptide fold change” value is -0.389.

“EHBP1L1_Q8N3D4_346_ETQAQACPQEGTEAHGAR (UniProt Q8N3D4)”: the “probe-labelled cysteine peptide fold change” value was -0.258.

On to “EFTUD2_Q15029_148_TCFVDCLIEQTHPEIR (UniProt Q15029)”, for which the “probe-labelled cysteine peptide fold change” value amounted to 0.169.

Turning to “EHHADH_Q08426_566_YCPIPDVLCELGR (UniProt Q08426)”, the “probe-labelled cysteine peptide fold change” value was -0.206.

“EFR3A_Q14156_538_HIYLGCK (UniProt Q14156)”: the “probe-labelled cysteine peptide fold change” value came out at 0.00379.

For “EIF3A_Q14152_198_KLCDNLR (UniProt Q14152)”, the “probe-labelled cysteine peptide fold change” value turned out to be 0.0465.

On to “EFL1_Q7Z2Z2_953_GESPLTDCYGPFSGQLIATMK (UniProt Q7Z2Z2)”, for which the “probe-labelled cysteine peptide fold change” value was -0.327.

Turning to “EIF2B3_Q9NR50_206_FHTGLVDAHLYCLK (UniProt Q9NR50)”, the “probe-labelled cysteine peptide fold change” value was -0.00252.

In the case of “EEF2_P13639_567_DLEEDHACIPIK (UniProt P13639)”, the “probe-labelled cysteine peptide fold change” value is -0.283.

Consider “EDC4_Q6P2E9_976_LCTQLEGLQSTVTGHVER (UniProt Q6P2E9)”, for which the “probe-labelled cysteine peptide fold change” value is -0.0211.

In the case of “EGLN1_Q9GZT9_127_AKPPADPAAAASPCR (UniProt Q9GZT9)”, the “probe-labelled cysteine peptide fold change” value was -0.0565.

Take “EEF1G_P26641_266_AAAPAPEEEMDECEQALAAEPK (UniProt P26641)”: the “probe-labelled cysteine peptide fold change” value was -0.0104.

Regarding “EIF1AD_Q8N9N8_89_AEISFVLCK (UniProt Q8N9N8)”, the “probe-labelled cysteine peptide fold change” value is -0.0675.

As to “EIF3A_Q14152_478_HCDLQVR (UniProt Q14152)”, the “probe-labelled cysteine peptide fold change” value amounted to 0.0566.

Regarding “EDC3_Q96F86_311_RLEMTGVCASQMALTLLGGPNR (UniProt Q96F86)”, the “probe-labelled cysteine peptide fold change” value came out at 0.172.

For the target “EDC3_Q96F86_341_NVHQRPTVALLCGPHVK (UniProt Q96F86)”, the “probe-labelled cysteine peptide fold change” value came to 0.0629.

Take “EDC4_Q6P2E9_299_GHSTCLSEGALSPDGTVLATASHDGYVK (UniProt Q6P2E9)”: the “probe-labelled cysteine peptide fold change” value is -0.0854.

Take “EHMT1_Q9H9B1_575_APLLVLCEDHR (UniProt Q9H9B1)”: the “probe-labelled cysteine peptide fold change” value was -0.125.

Regarding “EIF2S3_P41091_105_SCGSSTPDEFPTDIPGTK (UniProt P41091)”, the “probe-labelled cysteine peptide fold change” value was -0.0873.

In the case of “EEF1G_P26641_266_KAAAPAPEEEMDECEQALAAEPK (UniProt P26641)”, the “probe-labelled cysteine peptide fold change” value is -0.218.

As for “EIF2S1_P05198_70_IGRNECVVVIR (UniProt P05198)”, the “probe-labelled cysteine peptide fold change” value is -0.0195.

On to “ECT2_Q9H8V3_221_VTHLVANCTQGEK (UniProt Q9H8V3)”, for which the “probe-labelled cysteine peptide fold change” value was -0.00819.

Turning to “EHMT2_Q96KQ7_428_GFEELPLCSCR (UniProt Q96KQ7)”, the “probe-labelled cysteine peptide fold change” value was determined as 0.0422.

For the target “EHD4_Q9H223_495_LADCDCDGMLDEEEFALAK (UniProt Q9H223)”, the “probe-labelled cysteine peptide fold change” value was determined as 0.00246.

Regarding “EHMT2_Q96KQ7_497_HHCCPGCGYFCTAGTFLECHPDFR (UniProt Q96KQ7)”, the “probe-labelled cysteine peptide fold change” value is -0.181.

On to “EHHADH_Q08426_559_RYCPIPDVLCELGR (UniProt Q08426)”, for which the “probe-labelled cysteine peptide fold change” value was -0.121.

For “ECI2_O75521_368_LHAVNAEECNVLQGR (UniProt O75521)”, the “probe-labelled cysteine peptide fold change” value was -0.304.

On to “EEF1A1_P68104_234_DGNASGTTLLEALDCILPPTR (UniProt P68104)”, for which the “probe-labelled cysteine peptide fold change” value is -0.247.

With “EIF3B_P55884_302_YWLEEAECR (UniProt P55884)”, the “probe-labelled cysteine peptide fold change” value was 0.164.

Take “ECPAS_Q5VYK3_1503_EECNLWTEVWQENVPGSFGGIR (UniProt Q5VYK3)”: the “probe-labelled cysteine peptide fold change” value came out at 0.14.

For “EGFL7_Q9UHF1_269_IDSLSEQISFLEEQLGSCSCK (UniProt Q9UHF1)”, the “probe-labelled cysteine peptide fold change” value is -0.11.

In the case of “EIF1_P41567_94_KNICQFLVEIGLAK (UniProt P41567)”, the “probe-labelled cysteine peptide fold change” value amounted to 0.411.

For the target “EHMT1_Q9H9B1_842_DAEGSTCLHLAAK (UniProt Q9H9B1)”, the “probe-labelled cysteine peptide fold change” value came out at 0.306.

The experiment is the same for the next values; noted with them: 50 µM; THP-1; incubation time: 4 h.
Take “EIF2S1_P05198_70_IGRNECVVVIRVDK (UniProt P05198)”: the “probe-labelled cysteine peptide fold change” value is -0.44.

Consider “EIF2A_Q9BY44_306_CDPVFDFGTGPR (UniProt Q9BY44)”, for which the “probe-labelled cysteine peptide fold change” value was found to be 0.176.

With “ECPAS_Q5VYK3_602_MCLAHSAGVVPTSQSLADMQDHAPAIGR (UniProt Q5VYK3)”, the “probe-labelled cysteine peptide fold change” value came out at 0.116.

As to “EHBP1L1_Q8N3D4_346_ETQAQACPQEGTEAHGAR (UniProt Q8N3D4)”, the “probe-labelled cysteine peptide fold change” value was -0.454.

As for “EFTUD2_Q15029_148_TCFVDCLIEQTHPEIR (UniProt Q15029)”, the “probe-labelled cysteine peptide fold change” value was -0.0843.

As for “EHHADH_Q08426_566_YCPIPDVLCELGR (UniProt Q08426)”, the “probe-labelled cysteine peptide fold change” value was -0.0812.

For “EFR3A_Q14156_538_HIYLGCK (UniProt Q14156)”, the “probe-labelled cysteine peptide fold change” value was 0.198.

With “EIF3A_Q14152_198_KLCDNLR (UniProt Q14152)”, the “probe-labelled cysteine peptide fold change” value was -0.109.

With “EFL1_Q7Z2Z2_953_GESPLTDCYGPFSGQLIATMK (UniProt Q7Z2Z2)”, the “probe-labelled cysteine peptide fold change” value is 0.0206.

As for “EIF2B3_Q9NR50_206_FHTGLVDAHLYCLK (UniProt Q9NR50)”, the “probe-labelled cysteine peptide fold change” value was -0.338.

Turning to “EEF2_P13639_567_DLEEDHACIPIK (UniProt P13639)”, the “probe-labelled cysteine peptide fold change” value was 0.14.

Take “EDC4_Q6P2E9_976_LCTQLEGLQSTVTGHVER (UniProt Q6P2E9)”: the “probe-labelled cysteine peptide fold change” value came to 0.299.

As to “EGLN1_Q9GZT9_127_AKPPADPAAAASPCR (UniProt Q9GZT9)”, the “probe-labelled cysteine peptide fold change” value was -0.505.

Take “EEF1G_P26641_266_AAAPAPEEEMDECEQALAAEPK (UniProt P26641)”: the “probe-labelled cysteine peptide fold change” value was -0.102.

Consider “EIF1AD_Q8N9N8_89_AEISFVLCK (UniProt Q8N9N8)”, for which the “probe-labelled cysteine peptide fold change” value is -0.261.

Regarding “EIF3A_Q14152_478_HCDLQVR (UniProt Q14152)”, the “probe-labelled cysteine peptide fold change” value was -0.0509.

As for “EDC3_Q96F86_311_RLEMTGVCASQMALTLLGGPNR (UniProt Q96F86)”, the “probe-labelled cysteine peptide fold change” value came to 0.142.

On to “EDC3_Q96F86_341_NVHQRPTVALLCGPHVK (UniProt Q96F86)”, for which the “probe-labelled cysteine peptide fold change” value amounted to 0.0808.

As for “EDC4_Q6P2E9_299_GHSTCLSEGALSPDGTVLATASHDGYVK (UniProt Q6P2E9)”, the “probe-labelled cysteine peptide fold change” value is -0.477.

Take “EHMT1_Q9H9B1_575_APLLVLCEDHR (UniProt Q9H9B1)”: the “probe-labelled cysteine peptide fold change” value was -0.239.

Take “EIF2S3_P41091_105_SCGSSTPDEFPTDIPGTK (UniProt P41091)”: the “probe-labelled cysteine peptide fold change” value is -0.0641.

“EEF1G_P26641_266_KAAAPAPEEEMDECEQALAAEPK (UniProt P26641)”: the “probe-labelled cysteine peptide fold change” value was -0.753.

For “EIF2S1_P05198_70_IGRNECVVVIR (UniProt P05198)”, the “probe-labelled cysteine peptide fold change” value stood at 0.0284.

As for “ECT2_Q9H8V3_221_VTHLVANCTQGEK (UniProt Q9H8V3)”, the “probe-labelled cysteine peptide fold change” value was -0.161.

Turning to “EHMT2_Q96KQ7_428_GFEELPLCSCR (UniProt Q96KQ7)”, the “probe-labelled cysteine peptide fold change” value was 0.126.

In the case of “EHD4_Q9H223_495_LADCDCDGMLDEEEFALAK (UniProt Q9H223)”, the “probe-labelled cysteine peptide fold change” value is -0.276.

With “EHMT2_Q96KQ7_497_HHCCPGCGYFCTAGTFLECHPDFR (UniProt Q96KQ7)”, the “probe-labelled cysteine peptide fold change” value is -0.0725.

“EHHADH_Q08426_559_RYCPIPDVLCELGR (UniProt Q08426)”: the “probe-labelled cysteine peptide fold change” value came to 0.154.

For “ECI2_O75521_368_LHAVNAEECNVLQGR (UniProt O75521)”, the “probe-labelled cysteine peptide fold change” value was -0.0596.

“EEF1A1_P68104_234_DGNASGTTLLEALDCILPPTR (UniProt P68104)”: the “probe-labelled cysteine peptide fold change” value was -0.0429.

As for “EIF3B_P55884_302_YWLEEAECR (UniProt P55884)”, the “probe-labelled cysteine peptide fold change” value came to 0.426.

For “ECPAS_Q5VYK3_1503_EECNLWTEVWQENVPGSFGGIR (UniProt Q5VYK3)”, the “probe-labelled cysteine peptide fold change” value turned out to be 0.205.

With “EGFL7_Q9UHF1_269_IDSLSEQISFLEEQLGSCSCK (UniProt Q9UHF1)”, the “probe-labelled cysteine peptide fold change” value amounted to 0.0781.

Regarding “EIF1_P41567_94_KNICQFLVEIGLAK (UniProt P41567)”, the “probe-labelled cysteine peptide fold change” value was -0.602.

Take “EHMT1_Q9H9B1_842_DAEGSTCLHLAAK (UniProt Q9H9B1)”: the “probe-labelled cysteine peptide fold change” value was determined as 0.322.
